Results reported in article PMC4432227.
These are yes or no findings as the source states them, for the method shown. Some binding calls cover weakened binding; strength is not graded here. Tags and fused reporters may be left off the sequences shown.

Sequences of proteins named here, by UniProt entry; tags and fusion partners are left off.
UniProt P51149: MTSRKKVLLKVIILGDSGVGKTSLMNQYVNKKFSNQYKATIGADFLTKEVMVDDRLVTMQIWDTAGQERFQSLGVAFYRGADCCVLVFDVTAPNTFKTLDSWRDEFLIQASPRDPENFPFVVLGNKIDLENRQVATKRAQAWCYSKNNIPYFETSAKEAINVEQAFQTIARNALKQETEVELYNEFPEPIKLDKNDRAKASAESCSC
UniProt Q9NVJ2: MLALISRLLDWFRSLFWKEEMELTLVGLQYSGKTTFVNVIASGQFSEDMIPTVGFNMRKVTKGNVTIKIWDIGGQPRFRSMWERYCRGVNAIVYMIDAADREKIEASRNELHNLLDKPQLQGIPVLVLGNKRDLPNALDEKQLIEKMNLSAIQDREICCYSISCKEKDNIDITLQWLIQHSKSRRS

B1: hVps11 (yeast two-hybrid fusion) (protein, UniProt Q9H270 1-941)
chain: MAAYLQWRRFVFFDKELVKEPLSNDGAAPGATPASGSAASKFLCLPPGITVCDSGRGSLVFGDMEGQIWFLPRSLQLTGFQAYKLRVTHLYQLKQHNILASVGEDEEGINPLVKIWNLEKRDGGNPLCTRIFPAIPGTEPTVVSCLTVHENLNFMAIGFTDGSVTLNKGDITRDRHSKTQILHKGNYPVTGLAFRQAGKTTHLFVVTTENVQSYIVSGKDYPRVELDTHGCGLRCSALSDPSQDLQFIVAGDECVYLYQPDERGPCFAFEGHKLIAHWFRGYLIIVSRDRKVSPKSEFTSRDSQSSDKQILNIYDLCNKFIAYSTVFEDVVDVLAEWGSLYVLTRDGRVHALQEKDTQTKLEMLFKKNLFEMAINLAKSQHLDSDGLAQIFMQYGDHLYSKGNHDGAVQQYIRTIGKLEPSYVIRKFLDAQRIHNLTAYLQTLHRQSLANADHTTLLLNCYTKLKDSSKLEEFIKKKSESEVHFDVETAIKVLRQAGYYSHALYLAENHAHHEWYLKIQLEDIKNYQEALRYIGKLPFEQAESNMKRYGKILMHHIPEQTTQLLKGLCTDYRPSLEGRSDREAPGCRANSEEFIPIFANNPRELKAFLEHMSEVQPDSPQGIYDTLLELRLQNWAHEKDPQVKEKLHAEAISLLKSGRFCDVFDKALVLCQMHDFQDGVLYLYEQGKLFQQIMHYHMQHEQYRQVISVCERHGEQDPSLWEQALSYFARKEEDCKEYVAAVLKHIENKNLMPPLLVVQTLAHNSTATLSVIRDYLVQKLQKQSQQIAQDELRVRRYREETTRIRQEIQELKASPKIFQKTKCSICNSALELPSVHFLCGHSFHQHCFESYSESDADCPTCLPENRKVMDMIRAQEQKRDLHDQFQHQLKCSNDSFSVIADYFGRGVFNKLTLLTDPPTARLTSSLEAGLQRDLLMHSRRGT
B2: hVps33a (yeast two-hybrid fusion) (protein, UniProt Q96AX1 1-596)
chain: MAAHLSYGRVNLNVLREAVRRELREFLDKCAGSKAIVWDEYLTGPFGLIAQYSLLKEHEVEKMFTLKGNRLPAADVKNIIFFVRPRLELMDIIAENVLSEDRRGPTRDFHILFVPRRSLLCEQRLKDLGVLGSFIHREEYSLDLIPFDGDLLSMESEGAFKECYLEGDQTSLYHAAKGLMTLQALYGTIPQIFGKGECARQVANMMIRMKREFTGSQNSIFPVFDNLLLLDRNVDLLTPLATQLTYEGLIDEIYGIQNSYVKLPPEKFAPKKQGDGGKDLPTEAKKLQLNSAEELYAEIRDKNFNAVGSVLSKKAKIISAAFEERHNAKTVGEIKQFVSQLPHMQAARGSLANHTSIAELIKDVTTSEDFFDKLTVEQEFMSGIDTDKVNNYIEDCIAQKHSLIKVLRLVCLQSVCNSGLKQKVLDYYKREILQTYGYEHILTLHNLEKAGLLKPQTGGRNNYPTIRKTLRLWMDDVNEQNPTDISYVYSGYAPLSVRLAQLLSRPGWRSIEEVLRILPGPHFEERQPLPTGLQKKRQPGENRVTLIFFLGGVTFAEIAALRFLSQLEDGGTEYVIATTKLMNGTSWIEALMEKPF

How the values were obtained:
Test in all cases: two-hybrid; S. cerevisiae AH109 co-transformants (pGBKT7 and pGADT7), grown at 30°C, replated on non-selection (+HIS) and selection (−HIS) plates
[1] = target: Rab7 (yeast two-hybrid fusion) (UniProt P51149)
[2] = target: T1, SKIP (yeast two-hybrid fusion) (UniProt Q8IWE5)
T1 sequence: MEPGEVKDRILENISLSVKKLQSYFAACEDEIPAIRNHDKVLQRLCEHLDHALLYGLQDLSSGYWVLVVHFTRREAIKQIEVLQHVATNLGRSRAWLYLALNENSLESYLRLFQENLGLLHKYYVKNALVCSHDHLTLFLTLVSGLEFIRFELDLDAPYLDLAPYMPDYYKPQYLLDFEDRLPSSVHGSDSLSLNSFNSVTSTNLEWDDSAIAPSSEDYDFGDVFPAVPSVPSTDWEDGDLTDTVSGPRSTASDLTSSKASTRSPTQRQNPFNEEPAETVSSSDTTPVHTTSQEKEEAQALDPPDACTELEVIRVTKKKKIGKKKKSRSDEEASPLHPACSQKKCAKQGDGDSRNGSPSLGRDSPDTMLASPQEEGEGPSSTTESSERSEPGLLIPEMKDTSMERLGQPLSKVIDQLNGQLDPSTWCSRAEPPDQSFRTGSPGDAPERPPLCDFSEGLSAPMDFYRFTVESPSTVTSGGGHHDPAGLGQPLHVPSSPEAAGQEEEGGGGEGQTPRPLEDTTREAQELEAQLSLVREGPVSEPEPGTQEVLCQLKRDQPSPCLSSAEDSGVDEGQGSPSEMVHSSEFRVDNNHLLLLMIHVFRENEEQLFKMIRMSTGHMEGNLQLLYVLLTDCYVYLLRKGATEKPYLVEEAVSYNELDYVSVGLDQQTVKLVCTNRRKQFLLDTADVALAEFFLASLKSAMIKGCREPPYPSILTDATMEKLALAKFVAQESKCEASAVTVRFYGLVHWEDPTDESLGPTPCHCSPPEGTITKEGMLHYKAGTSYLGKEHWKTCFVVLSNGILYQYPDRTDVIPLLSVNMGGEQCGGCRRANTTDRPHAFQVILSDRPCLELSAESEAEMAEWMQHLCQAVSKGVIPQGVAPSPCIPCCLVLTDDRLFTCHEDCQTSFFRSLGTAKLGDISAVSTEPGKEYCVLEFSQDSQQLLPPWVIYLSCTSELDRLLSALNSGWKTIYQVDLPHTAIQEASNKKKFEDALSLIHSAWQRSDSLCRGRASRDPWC

[3] = target: Arl8b (yeast two-hybrid fusion, Arl8b-pGBKT7) (UniProt Q9NVJ2)
[4] = target: T2, hVps39 (yeast two-hybrid fusion) (human) (UniProt Q96JC1)
T2 sequence: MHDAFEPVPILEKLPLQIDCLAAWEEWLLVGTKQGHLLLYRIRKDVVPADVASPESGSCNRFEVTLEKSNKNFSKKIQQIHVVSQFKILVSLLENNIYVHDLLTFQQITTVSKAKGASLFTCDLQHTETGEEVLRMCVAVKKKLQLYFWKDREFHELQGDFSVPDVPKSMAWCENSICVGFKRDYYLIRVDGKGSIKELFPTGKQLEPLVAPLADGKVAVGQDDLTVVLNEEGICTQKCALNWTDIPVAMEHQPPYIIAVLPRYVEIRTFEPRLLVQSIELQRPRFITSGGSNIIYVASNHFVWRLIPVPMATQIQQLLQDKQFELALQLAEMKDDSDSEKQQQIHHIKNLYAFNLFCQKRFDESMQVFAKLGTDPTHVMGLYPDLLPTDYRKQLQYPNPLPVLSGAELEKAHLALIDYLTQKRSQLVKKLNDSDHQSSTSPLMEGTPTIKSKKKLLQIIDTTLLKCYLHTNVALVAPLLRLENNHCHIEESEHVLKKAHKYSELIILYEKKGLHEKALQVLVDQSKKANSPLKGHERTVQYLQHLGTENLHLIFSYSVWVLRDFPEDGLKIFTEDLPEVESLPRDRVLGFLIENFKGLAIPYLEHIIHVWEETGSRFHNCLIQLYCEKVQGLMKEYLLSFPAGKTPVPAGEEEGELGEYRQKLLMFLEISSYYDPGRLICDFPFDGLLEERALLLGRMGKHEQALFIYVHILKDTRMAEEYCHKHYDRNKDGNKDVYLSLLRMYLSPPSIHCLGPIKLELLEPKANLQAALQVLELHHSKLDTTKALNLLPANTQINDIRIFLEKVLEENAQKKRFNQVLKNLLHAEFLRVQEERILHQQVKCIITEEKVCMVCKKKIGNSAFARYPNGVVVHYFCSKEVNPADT

[5] = target: T3, hVps18 (yeast two-hybrid fusion) (human) (UniProt Q9P253)
T3 sequence: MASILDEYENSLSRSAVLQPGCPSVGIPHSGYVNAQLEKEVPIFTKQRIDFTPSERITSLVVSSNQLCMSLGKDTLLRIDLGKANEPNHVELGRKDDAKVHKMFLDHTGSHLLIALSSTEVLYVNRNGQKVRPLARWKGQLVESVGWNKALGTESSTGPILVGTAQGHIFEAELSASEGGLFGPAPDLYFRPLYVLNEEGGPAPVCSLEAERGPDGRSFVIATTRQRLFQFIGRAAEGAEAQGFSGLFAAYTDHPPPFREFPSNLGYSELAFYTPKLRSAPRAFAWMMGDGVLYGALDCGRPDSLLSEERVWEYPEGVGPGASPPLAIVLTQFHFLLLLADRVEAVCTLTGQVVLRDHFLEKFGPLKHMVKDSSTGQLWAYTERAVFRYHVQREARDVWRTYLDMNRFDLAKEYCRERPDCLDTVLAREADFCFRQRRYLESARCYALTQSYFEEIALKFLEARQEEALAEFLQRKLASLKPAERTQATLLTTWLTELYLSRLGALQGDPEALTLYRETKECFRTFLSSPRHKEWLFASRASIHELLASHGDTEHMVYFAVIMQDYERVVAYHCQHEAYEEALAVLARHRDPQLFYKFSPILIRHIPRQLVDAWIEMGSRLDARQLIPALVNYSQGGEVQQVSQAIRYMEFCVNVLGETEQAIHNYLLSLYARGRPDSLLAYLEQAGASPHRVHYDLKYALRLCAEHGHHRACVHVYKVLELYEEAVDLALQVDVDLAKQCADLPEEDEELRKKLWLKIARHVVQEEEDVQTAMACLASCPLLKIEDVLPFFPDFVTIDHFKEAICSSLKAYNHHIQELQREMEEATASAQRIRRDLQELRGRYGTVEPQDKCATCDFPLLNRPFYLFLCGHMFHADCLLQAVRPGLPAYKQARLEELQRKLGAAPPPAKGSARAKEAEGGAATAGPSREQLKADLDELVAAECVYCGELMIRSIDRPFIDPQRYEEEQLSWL

[6] = target: T4, hVps16 (yeast two-hybrid fusion) (human) (UniProt Q9H269)
T4 sequence: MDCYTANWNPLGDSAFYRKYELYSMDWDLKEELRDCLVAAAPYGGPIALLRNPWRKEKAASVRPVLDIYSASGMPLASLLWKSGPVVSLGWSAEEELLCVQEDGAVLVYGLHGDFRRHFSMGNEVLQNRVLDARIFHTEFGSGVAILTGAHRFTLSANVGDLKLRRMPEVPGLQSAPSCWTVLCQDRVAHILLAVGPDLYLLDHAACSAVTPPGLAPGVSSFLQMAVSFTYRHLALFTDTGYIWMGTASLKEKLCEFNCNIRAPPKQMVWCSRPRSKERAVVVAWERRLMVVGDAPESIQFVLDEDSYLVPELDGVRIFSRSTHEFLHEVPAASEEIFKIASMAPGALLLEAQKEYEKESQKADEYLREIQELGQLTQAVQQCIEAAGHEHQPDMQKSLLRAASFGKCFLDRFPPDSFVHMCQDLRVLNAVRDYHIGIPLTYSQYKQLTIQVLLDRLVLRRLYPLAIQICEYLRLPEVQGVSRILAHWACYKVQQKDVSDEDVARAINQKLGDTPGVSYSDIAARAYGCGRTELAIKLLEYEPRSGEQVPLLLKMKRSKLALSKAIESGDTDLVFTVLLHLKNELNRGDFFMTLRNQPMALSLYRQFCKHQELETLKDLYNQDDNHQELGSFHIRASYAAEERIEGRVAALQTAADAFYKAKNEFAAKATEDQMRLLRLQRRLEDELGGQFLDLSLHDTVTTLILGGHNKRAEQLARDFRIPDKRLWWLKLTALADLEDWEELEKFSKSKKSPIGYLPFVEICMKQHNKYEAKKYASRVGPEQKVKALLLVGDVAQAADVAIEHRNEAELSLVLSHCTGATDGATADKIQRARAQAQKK

| Binder | binding [1] | binding [2] | binding [3] | binding [4] | binding [5] | binding [6] |
| --- | --- | --- | --- | --- | --- | --- |
| B1 | no binding | no binding | no binding | binds | binds |  |
| B2 | no binding | no binding | no binding |  |  | binds |
